Data: PubChem BioAssay AID1347414 (National Center for Advancing Translational Sciences (NCATS), 2020)
Inconclusive results, whose numbers are uncertain, are shown with a selection of clear calls. Where the call is inconclusive, the potency comes from a doubtful curve fit. The source made the active and inactive calls. The call rests on the fitted dose curve; in most records, active means well fitted inhibition curve with a large enough effect; inconclusive means small, poorly fitted or top-dose-only effect; inactive means no such curve, though single readings can be large or run the other way.

Test: qHTS to identify inhibitors of the type 1 interferon - major histocompatibility complex class I in skeletal muscle: Secondary screen by immunofluorescence; further: nearly all actives have a fitted effect of over 70% in size
Details: C25cl48 myoblasts, IFN-b induced HLA-ABC immunofluorescence, 24 h; series mostly up to 49.8 µM
Outline: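 Immortalized human myoblasts C25cl48 were stimulated with 4.0 ng/ml IFN-beta and exposed to an 11-point 1:3 compound titration, top 50 uM, for 24 h at 37 C. They were then fixed and immunostained for HLA-ABC, and quantified by laser scanning cytometry.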
Potency means the concentration at half of the fitted maximal effect.

| SMILES | Potency |
| --- | --- |
| C=C(C)[C@@H]1CCC(C)=C[C@H]1c1c(O)cc(CCCCC)cc1O | inconclusive: 45.8 µM [inhibitor, single point] |
| Cc1sc2c(c1C)C(c1ccc(Cl)cc1)=N[C@@H](CC(=O)Nc1ccc(O)cc1)c1nnc(C)n1-2 | inconclusive: 0.23 µM [inhibitor, full curve] |
| Cc1sc2c(c1C)C(c1ccc(Cl)cc1)=N[C@@H](CC(=O)OC(C)(C)C)c1nnc(C)n1-2 | inconclusive: 0.23 µM [inhibitor, full curve] |
| C/C(=C\c1csc(C)n1)[C@@H]1C[C@@H]2O[C@]2(C)CCC[C@H](C)[C@H](O)[C@@H](C)C(=O)C(C)(C)[C@@H](O)CC(=O)O1 | inactive |
| C/C=C(/C)C(=O)O[C@H]1C(C)=C2[C@H]([C@@H]1OC(=O)CCCCCCC)[C@@](C)(OC(C)=O)C[C@H](OC(=O)CCC)[C@@]1(O)[C@H]2OC(=O)[C@@]1(C)O | inconclusive: 0.0814 µM [inhibitor, full curve, poor fit] |
| CCn1cnc2c(Nc3cccc(Cl)c3)nc(N[C@@H]3CCCC[C@@H]3N)nc21 | inconclusive: 1.02 µM [inhibitor, full curve, poor fit] |
| CC(C)(O)/C=C\C(=O)[C@](C)(O)[C@H]1[C@H](O)C[C@]2(C)[C@@H]3CC=C4[C@@H](C=C(O)C(=O)C4(C)C)[C@]3(C)C(=O)C[C@@]12C | inconclusive: 6.47 µM [inhibitor, full curve, poor fit] |

Part of the list above in order of length of the SMILES, rising:

| SMILES | Potency |
| --- | --- |
| CCn1cnc2c(Nc3cccc(Cl)c3)nc(N[C@@H]3CCCC[C@@H]3N)nc21 | inconclusive: 1.02 µM [inhibitor, full curve, poor fit] |
| Cc1sc2c(c1C)C(c1ccc(Cl)cc1)=N[C@@H](CC(=O)OC(C)(C)C)c1nnc(C)n1-2 | inconclusive: 0.23 µM [inhibitor, full curve] |
| Cc1sc2c(c1C)C(c1ccc(Cl)cc1)=N[C@@H](CC(=O)Nc1ccc(O)cc1)c1nnc(C)n1-2 | inconclusive: 0.23 µM [inhibitor, full curve] |
